The values below come from publication PMC7819943, “Rice protein-binding microarrays: a tool to detect cis-acting elements near promoter regions in rice”.

The chains behind the UniProt entries cited, without tags or fusion partners.
UniProt Q0JBA9, entry or part of it: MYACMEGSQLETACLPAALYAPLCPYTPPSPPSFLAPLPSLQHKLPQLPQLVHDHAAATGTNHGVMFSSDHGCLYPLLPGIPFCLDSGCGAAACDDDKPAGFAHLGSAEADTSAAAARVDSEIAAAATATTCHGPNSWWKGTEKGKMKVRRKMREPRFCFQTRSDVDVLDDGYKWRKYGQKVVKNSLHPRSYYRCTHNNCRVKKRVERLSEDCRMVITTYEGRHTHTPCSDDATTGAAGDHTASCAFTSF

This is one part of the list.

This assay addresses OsWRKY34 (Oryza sativa, UniProt Q0JBA9 1-250). Description: protein-binding microarray (RPBM); PBS, 2% BSA, 51.3 ng/ul salmon testes DNA, 50 uM zinc acetate, 200 nM TF, 25 C, 1 h; high values mean tight binding. The following applies: protein: recombinant; tags: N-terminal polyhistidine and DsRed monomer fusion (pET32a); label: CyDye5-dUTP incorporated in the synthesized complementary strand; 3' TTTTT single-stranded linker to array surface; dsDNA, one strand shown. The gist of the method:
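An Axon 4000B scanner gave the binding signal as per-feature fluorescence intensity in arbitrary units. This followed washing of a custom Agilent array that had been incubated for 1 h at 25 °C with 200 nM protein in PBS, 2% BSA, salmon testes DNA and 50 µM zinc acetate. The proteins were transcription factors fused at the N-terminus to polyhistidine and DsRed, expressed in E. coli BL21-CodonPlus and purified on Ni–NTA.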
Regarding “TTCATCGTAAACGTTACTTCTCGTTATAAATTGATTTTTTCGGAGTCACCTAGTGCAG”, the binding signal is 10100 fluorescence intensity (a.u.).

With “AATTTCTTGTTCCGTCCATGGTGTTGTCGATAGGAAGGCGCGGAGTCACCTAGTGCAG”, the binding signal is 8570 fluorescence intensity (a.u.).

Take “GTGTGTATGTTTTGTGTTGCGGACTTGCGATGCGTAGCGACGGAGTCACCTAGTGCAG”: the binding signal is 8180 fluorescence intensity (a.u.).

Consider “TCCACTACCACTACCGTTCCCGATCTCTGGTTCCCTGTGCCGGAGTCACCTAGTGCAG”, for which the binding signal was 8020 fluorescence intensity (a.u.).

Consider “GAATTTTAGCTCAGTGGCTTGTCGTTTTCTCGTTTTCTGACGGAGTCACCTAGTGCAG”, for which the binding signal is 12300 fluorescence intensity (a.u.).

As to “CGGTGATTTTTTCTGAAGCTGGTCCCTGGCCCACACTACTCGGAGTCACCTAGTGCAG”, the binding signal was 8870 fluorescence intensity (a.u.).

Regarding “GTTTATCTCTTGTCACGACGTCGGTTGTCCTTGTGCTATTCGGAGTCACCTAGTGCAG”, the binding signal was 9840 fluorescence intensity (a.u.).

Take “TATTTTCCGGATCGAATTGCCACGTAAGGGCCACATCAGTCGGAGTCACCTAGTGCAG”: the binding signal was 8510 fluorescence intensity (a.u.).

In the case of “CGCACGGCACGGGTGGGCGGGCGGGCGCGCGCCGGTGGCGCGGAGTCACCTAGTGCAG”, the binding signal is 9700 fluorescence intensity (a.u.).

Consider “TTTCAGTTTGGCATCTCAGTGTTTTTTTATATACGTATATCGGAGTCACCTAGTGCAG”, for which the binding signal was 12000 fluorescence intensity (a.u.).

For “ACCCTCTACCATTTTTATTTCCATATTTTTTTCTTGAAAACGGAGTCACCTAGTGCAG”, the binding signal was 8670 fluorescence intensity (a.u.).

As for “TCTAGCCACGACAACTTACTCATCTTTTATTAAAATCCATCGGAGTCACCTAGTGCAG”, the binding signal is 8220 fluorescence intensity (a.u.).

On to “AACACGAGTCGCGCCGCCGATCTCAGCAGGGGAGGGGAGGCGGAGTCACCTAGTGCAG”, for which the binding signal was 10900 fluorescence intensity (a.u.).

For the sequence “GTGATGCATATATTCTCTCATATTATTGCCTGTTGGCTTTCGGAGTCACCTAGTGCAG”, the binding signal was 8280 fluorescence intensity (a.u.).

With “TCTGCCCATGGTCTGCCCGGCCGACTCCGTGTCAGTTTCGCGGAGTCACCTAGTGCAG”, the binding signal is 8660 fluorescence intensity (a.u.).

On to “ACCACCTCGTAGCCTCGGCTGCAACGGCTACTACCACCATCGGAGTCACCTAGTGCAG”, for which the binding signal is 8100 fluorescence intensity (a.u.).

As for “CCGTATTTTAATATATGACGTCGTTGACTTTTTAACCAACCGGAGTCACCTAGTGCAG”, the binding signal was 27300 fluorescence intensity (a.u.).

“GGTCTGACTGATTGCGTCGTGTAACAAACATTATATTCTTCGGAGTCACCTAGTGCAG”: the binding signal is 9070 fluorescence intensity (a.u.).

Regarding “CACGTCGTCCAGCTTTATCATTCGCTTTCGTTTTCCCCTGCGGAGTCACCTAGTGCAG”, the binding signal is 10200 fluorescence intensity (a.u.).

As for “AAACCCTAATTCCATTGCTTTCGTCAGGGTCGCCGGAGTTCGGAGTCACCTAGTGCAG”, the binding signal was 12000 fluorescence intensity (a.u.).

Consider “ATTGCTCCAGGAGCGGAACTTGAGCCCATTCATTTTTATTCGGAGTCACCTAGTGCAG”, for which the binding signal is 8120 fluorescence intensity (a.u.).

As for “CTTTGCAACACGGCCTCTGCCTACGAGATCGGCGACGACGCGGAGTCACCTAGTGCAG”, the binding signal was 8740 fluorescence intensity (a.u.).

As to “GTTCTAGTGGCTCTTTTTAGTTTTCTAATATCAGTCTTCCCGGAGTCACCTAGTGCAG”, the binding signal was 8230 fluorescence intensity (a.u.).

For the sequence “ACCGATTCGTTTTCCCAAATCAACCGCACTACTACTGTTTCGGAGTCACCTAGTGCAG”, the binding signal is 9440 fluorescence intensity (a.u.).

With “GTCCGTGTAAAGATGGTGTTCTTTTTTTTTTTTATGACACCGGAGTCACCTAGTGCAG”, the binding signal was 8690 fluorescence intensity (a.u.).

On to “GTGGTGTACGTCAGCCTGGGGAGCCTCACGGTCATCTCCCCGGAGTCACCTAGTGCAG”, for which the binding signal was 8470 fluorescence intensity (a.u.).

With “GGACAGTTCATCGCCCTCGTTTTATATATCTAGATCTGAACGGAGTCACCTAGTGCAG”, the binding signal is 14000 fluorescence intensity (a.u.).

Regarding “GCCTCGCCTTCTTTTTCCACACCCACACCAACCCCATCCCCGGAGTCACCTAGTGCAG”, the binding signal was 10600 fluorescence intensity (a.u.).

On to “TATTTTGATAACATTTTTCTCATTTTTGTCTTTTTTGTTACGGAGTCACCTAGTGCAG”, for which the binding signal was 8340 fluorescence intensity (a.u.).

As for “GGGCCTGAAGTTTATTTTTATTATTTTACTCACTGACATTCGGAGTCACCTAGTGCAG”, the binding signal was 9160 fluorescence intensity (a.u.).

With “ACACAGATACTCACAACACGCGTACGTTATCTCCAGCTGACGGAGTCACCTAGTGCAG”, the binding signal is 12100 fluorescence intensity (a.u.).

Turning to “CATTTGAGTTCAATTTTTCTATGGTTGGTTCTTGTGTGTCCGGAGTCACCTAGTGCAG”, the binding signal was 9910 fluorescence intensity (a.u.).

In the case of “TCTCGGGTGGGTCTACGGCGCGTTCGTTCTCTCTCCATCCCGGAGTCACCTAGTGCAG”, the binding signal was 9430 fluorescence intensity (a.u.).

Take “CGTTTCTTGGGCCCCGATTTGGGAGGGGTTCTTGGCGATGCGGAGTCACCTAGTGCAG”: the binding signal is 8900 fluorescence intensity (a.u.).

As to “AGCTCTGTATTGCCGTTGCTTTTATTTAAAAGATATTTTTCGGAGTCACCTAGTGCAG”, the binding signal was 8030 fluorescence intensity (a.u.).

Take “GACTCAGATTGGACTTTCTTTCCCCTATTTTCACAGTTGGCGGAGTCACCTAGTGCAG”: the binding signal was 8940 fluorescence intensity (a.u.).

On to “ATTTGATGATCACACACTCATGTATGCATGTTATTAGTATCGGAGTCACCTAGTGCAG”, for which the binding signal is 8050 fluorescence intensity (a.u.).

“GGTTGTGATTGGTTGAGAAGTGGAGGTAGCTGAGAAAATTCGGAGTCACCTAGTGCAG”: the binding signal was 9420 fluorescence intensity (a.u.).

Regarding “ACTTAGAACTAGGCTATGTTTCATGTCTTTCACTTTGGATCGGAGTCACCTAGTGCAG”, the binding signal was 9540 fluorescence intensity (a.u.).

Regarding “TTTTTTTGGGCAAGTCTTTTGTCTCTTTAATTGTGTGTTACGGAGTCACCTAGTGCAG”, the binding signal is 8680 fluorescence intensity (a.u.).

Take “TTATTTTGGCCATTTTTTCTTGCGACTTTGTTTTATCAATCGGAGTCACCTAGTGCAG”: the binding signal is 8070 fluorescence intensity (a.u.).

“AGGTTTATGTCAGTCGAAGATTCTTCACTGCTACTGCTCTCGGAGTCACCTAGTGCAG”: the binding signal was 9310 fluorescence intensity (a.u.).
